In patent publication US20110224133A1:
These are yes or no findings as the source states them, for the method shown. For some of these results: In cells and extracts the contact can be indirect. Some entries that bind do so weakly or less than the wild type.

The chains behind the UniProt entries cited, without tags or fusion partners.
UniProt Q9NT62: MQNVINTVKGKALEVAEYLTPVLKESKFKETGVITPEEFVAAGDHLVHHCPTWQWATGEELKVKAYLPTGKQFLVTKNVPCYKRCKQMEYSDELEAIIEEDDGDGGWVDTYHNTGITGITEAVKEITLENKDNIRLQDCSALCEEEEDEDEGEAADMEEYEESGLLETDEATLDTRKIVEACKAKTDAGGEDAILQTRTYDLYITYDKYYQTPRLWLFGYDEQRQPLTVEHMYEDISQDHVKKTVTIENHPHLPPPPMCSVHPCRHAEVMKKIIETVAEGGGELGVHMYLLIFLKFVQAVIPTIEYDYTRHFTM

Legend:
[1] = biological target: GFP-Atg3 (UniProt Q9NT62); test: co-immunoprecipitation with αFlag or αGFP from HEK293T cells
[2] = biological target: Atg3 clone from a cDNA library of EBV-transformed human B-lymphocytes (yeast two-hybrid prey) (human) (UniProt Q9NT62); test: yeast two-hybrid screen
[3] = biological target: GST-Atg3 (human Atg3, full length) (human) (UniProt Q9NT62); test: GST pulldown from HEK293T cells

Substance | binding [3] | also measured
Flag-KSHV vFLIP (from UniProt F5HEZ4 1-188) | – | binding [1]: binds
Gal4-vFLIP fusion (yeast two-hybrid bait) (from UniProt F5HEZ4 1-188) | – | binding [2]: binds
KSHV vFLIP with the DED1 α2 helix deleted (from UniProt F5HEZ4 1-188) | binds | –
KSHV vFLIP with the DED2 α4 helix deleted (from UniProt F5HEZ4 1-188) | binds | –
